At least one compound was matched to its structure with a doubt left.
Tested on: cell line PC 3
Assay: SRB-assay of cell growth, cell line PC 3
Assay type: cell-based, human
Settings: PC 3, 10^−6M of Taxol and cyclodextrin, incubation time 96 hours
Method: As control solutions containing similar amounts of cyclodextrins and no Taxol, further the Taxol-Cremophor EL composition. Cremophor EL solution and the untreated cell cultures were examined.
The experiments were carried out and evaluated on both cell lines according to the examination methods of F. Skehan et al [New Colorimetric Assay of Anticancer Drug Screening, J. Natl. Canc. Inst. 82, 1107-1113 (1990) and A. Martin and M. Clynes (Comparison of 5 Microplate Colorimetric Assays for in Vitro Cytotoxicity Testing and Cell Proliferation Assays, Cytotechnology 11, 49-58 (1993)] in the Pathological and Experimental Cancer Research Institute No. 1 of the Semmelweis Medical University, Budapest.
The cells were exposed in a RPMI 1640 medium containing 10% of Foetal Calf Serum (FCS) medium on a microplate of 96 wells, by placing 5000 cells in 100 μl of medium.
The cell cultures were treated after 24 hours with a solution containing the test substances in 100 μl of a FCS-free RPMI medium, thus the final concentration of FCS became 5%. […]
After 72 and 96 hours the cell growth was measured by SRB-assay (the determining method is SRB-painting of the total protein, the total protein is proportional to the cell growth, the extinction was read by a Microplate reader at a wave length of 540 nm).

Question: For COC[C@H]1O[C@@H]2O[C@H]3[C@H](O)[C@@H](OC)[C@@H](O[C@H]4[C@H](O)[C@@H](OC)[C@@H](O[C@H]5[C@H](O)[C@@H](OC)[C@@H](O[C@H]6[C@H](O)[C@@H](OC)[C@@H](O[C@H]7[C@H](O)[C@@H](OC)[C@@H](O[C@H]8[C@H](O)[C@@H](OC)[C@@H](O[C@H]1[C@H](O)[C@H]2OC)O[C@@H]8COC)O[C@@H]7COC)O[C@@H]6COC)O[C@@H]5COC)O[C@@H]4COC)O[C@@H]3COC [DIMEB, heptakis-2,6-0-dimethyl-β-cyclodextrin], which “cell growth by SRB-assay, extinction at 540 nm” value is on record?
Answer: Its value is 1.345 ± 0:269.
